Test results taken from publication PMC7017467.

Columns and labels:
[1] = biological target: DasR (Streptomyces verticillus ATCC 15003) (UniProt A0A7M1Y6D7); assay: EMSA; conditions: EMSA buffer (composition, pH and temperature not given), 30 min incubation, 6% native polyacrylamide gel, recombinant protein, protein details: C-terminal 6xHis (introduced by reverse primer), label: 5'-Cy5
BlmR = assay: EMSA; conditions: EMSA buffer (composition, pH and temperature not given), 30 min incubation, 6% native polyacrylamide gel, recombinant protein, protein details: 6xHis

Sequence | binding result [1] | binding result ([1]; GlcN-6P (>100 mM), original shifted band lost, new shifted band appears) | binding result (BlmR; GlcN-6P, no dissociation) | binding result (BlmR; GlcNAc, no dissociation) | binding result (BlmR; no inducer) | binding result ([1]; GlcN-6P (>50 mM), complex dissociates)
ACCTTCTCCCTGGGCCGGGCTCTGTTAGATTGGTCTATACCACCCCAATCCCAAGATCGGCAGGCCCAGC (double strand) [PNagB] | binds | binds more weakly | – | – | – | –
TAAGCCCGAACCCGCAAGGATGACGAATTGCAAAATTGTGCAAGTCGCTACATGATGGTCCGGCTGTGCC (double strand) [PBlmR-1] | – | – | binds | binds | binds | –
CCGGACAGTTTCGCGCGTGGGGGTGGGAAAGGTCTAGTCCACTGTTCGACGGGTGCGGGATGGGGGCGCC (double strand) [PNagKA] | binds | – | – | – | – | binds more weakly

For at least one entry, the source does not settle the construct or the ends of the probe. For some of these results: A weaker result is weaker than the reference pair of the same experiment. For some of these results: At least one verdict was read from the data and is not stated in words by the source.
